{
  "source": "patent US20200289480A1",
  "about": "“PERGOLIDE FOR USE IN THE TREATMENT OF EYE DISEASES ASSOCIATED WITH AN ELEVATED LEVEL OF VASCULAR ENDOTHELIAL GROWTH FACTOR (VEGF) AND PHARMACEUTICAL COMPOSITION CONTAINING PERGOLIDE” (priority 2017, published 2020)",
  "key": {"[1]": {"system": "development of normal blood vessels", "test": "zebrafish embryo model, development of normal blood vessels", "assay_type": "in vivo, zebrafish (Danio rerio)", "method": "(§1) In studies on the effect of various substances on VEGF release and action, among others, a laboratory model using zebrafish (Danio rerio) is employed. The study tested 3 substances with potential inhibitory activity towards VEGF release and action which belong to the group of dopaminergic receptor D2 agonists—bromocriptine, cabergoline and pergolide. The study was conducted on the model using transgenic zebrafish embryos (Zebrafish Fli strain) with labelled blood system, illuminating under the fluorescent microscope. Photographic documentation was collected using Stereo Discover v8 fluorescent microscope, fluorescence 200c hxp, from Carl Zeiss Microscopy GmbH. During the study, the development of normal blood vessels and pathological blood vessels (abnormal angiogenesis) was observed. Abnormal angiogenesis was induced with the use of cobalt chloride (CoCl2) in a dose of 5 mM which was administered to the culture medium. […] Any changes in the development of natural (FIG. 1) and pathological blood vessels (FIG. 2) were recorded 72 an 96 hours after the administration of a tested substance and a tested substance with CoCl2, respectively. […]"}, "[2]": {"system": "pathological blood vessels (abnormal angiogenesis) induced with CoCl2", "test": "zebrafish embryo model, CoCl2-induced abnormal angiogenesis", "assay_type": "in vivo, zebrafish (Danio rerio)", "method": "as §1"}},
  "note": "For at least one compound, name, drawing or mass did not settle the structure.",
  "data": [
    {"smiles": "CC(C)C[C@H]1C(=O)N2CCC[C@H]2[C@]2(O)O[C@](NC(=O)[C@@H]3C=C4c5cccc6[nH]c(Br)c(c56)C[C@H]4N(C)C3)(C(C)C)C(=O)N12", "note": "[bromocriptine]", "values": [
      {"measurement": "inhibition of growth of normal eye blood vessels", "setting": "[1]; 2.5 μmol in culture medium, transgenic Zebrafish Fli embryos, recorded 72 and 96 hours", "value": "partial inhibition"},
      {"measurement": "inhibition of eye vessels formation", "setting": "[1]; 2.5 μmol, 72 hours, FIG. 6", "value": "Inhibition"},
      {"measurement": "inhibition of growth of pathological eye blood vessels", "setting": "[2]; 2.5 μmol in culture medium, CoCl2 5 mM, recorded 72 and 96 hours", "value": "partial inhibition"},
      {"measurement": "inhibition of abnormal blood vessels growth", "setting": "[2]; 2.5 μmol, 72 hours, FIG. 7", "value": "Partial inhibition"}
    ]}
  ]
}
